PubChem BioAssay AID686937 – Drosophila RNAi Screening Center – 2013

Screen: 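Genes whose loss weakens secretory pathway function in fly cells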 (primary screen)
Cell system: Drosophila S2 cells expressing secreted horseradish peroxidase
Reagents: long dsRNA against Drosophila genes
Time to read-out: about 5.5 days (5 days dsRNA, then 12 h reporter induction)
Challenge: reporter expression induced after 5 days of dsRNA, read 12 h later; inducer not stated
Read-out: 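Chemiluminescent measurement of peroxidase in the medium 12 h after reporter induction, following 5 days of dsRNA, given as a z-score per plate; higher means more secretion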
Scale: z-score: higher = more reporter secreted into medium
The screen tested about 23,000 reagents; below is an unselected part of those with a known target gene and a result. 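Reduced-secretion tags in replicate 1 do not always agree with the z-scores; no criterion for assigning the tags was given.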 The numbers tell different reagents against one gene apart. Names joined by + are all predicted targets of the reagent. Further read-outs or replicates are left out here. Reagent sequences are not shown. Not given: the amount of reagent.

cm + Inx7
- z-score, replicate 1: 0.27

Nmnat (GeneID 42987)
- z-score, replicate 1: 0.43

dind (GeneID 42243)
- z-score, replicate 1: 0.2

GluRIB (GeneID 44484) #1
- z-score, replicate 1: 0.48

GluRIB (GeneID 44484) #2
- z-score, replicate 1: 0.59

CG34228 (GeneID 5740377)
- z-score, replicate 1: 0.4

Cdc23 (GeneID 35315)
- z-score, replicate 1: -0.67

phyl (GeneID 36606)
- z-score, replicate 1: 0.19

Ir56a (GeneID 246471)
- z-score, replicate 1: 0.25

sage (GeneID 41105)
- z-score, replicate 1: -0.5

CG34050 (retired record) (GeneID 3885634)
- z-score, replicate 1: -2.51
- phenotype, replicate 1: reduced secretion

CG9166 (GeneID 38161)
- z-score, replicate 1: -0.08

CG15408 (GeneID 33548)
- z-score, replicate 1: 0.13

HemK2 + Snapin #1
- z-score, replicate 1: 0.34

HemK2 + Snapin #2
- z-score, replicate 1: 0.24

CG14423 (GeneID 31287)
- z-score, replicate 1: -0.42

Nep6 (GeneID 32234)
- z-score, replicate 1: 0.03

CG1146 (GeneID 38313)
- z-score, replicate 1: 0.12

pelo (GeneID 34286)
- z-score, replicate 1: 0.06

Sk1 (GeneID 32089)
- z-score, replicate 1: -0.65

Muc68E (GeneID 2768990)
- z-score, replicate 1: 0.48

CG32313 (GeneID 317973)
- z-score, replicate 1: 0.58

comm3 (GeneID 39696) #1
- z-score, replicate 1: 0.29

comm3 (GeneID 39696) #2
- z-score, replicate 1: 0.03

comm3 (GeneID 39696) #3
- z-score, replicate 1: 0.57

CG12321 (GeneID 42174)
- z-score, replicate 1: 0.26

mol (GeneID 34872) #1
- z-score, replicate 1: -1.58
- phenotype, replicate 1: reduced secretion

mol (GeneID 34872) #2
- z-score, replicate 1: 0.49

mol (GeneID 34872) #3
- z-score, replicate 1: -9.56
- phenotype, replicate 1: reduced secretion

Taken from above:
Ir56a (GeneID 246471), z-score, replicate 1 → 0.25
For “z-score, replicate 1”, CG9166 (GeneID 38161) shows -0.08
Result for CG12321 (GeneID 42174) in “z-score, replicate 1”: 0.26
